Measurements from patent US20030119102A1.
No constants are given. Whether binding was seen depends on the method and setting. Some results given as binding are weak or reduced against the parent protein; the word gives no strength.

Chains of the proteins cited; added tags and fusions are not shown. Lines headed by an entry give the natural chain unless they say otherwise; changes in a name come on top.
UniProt P04386: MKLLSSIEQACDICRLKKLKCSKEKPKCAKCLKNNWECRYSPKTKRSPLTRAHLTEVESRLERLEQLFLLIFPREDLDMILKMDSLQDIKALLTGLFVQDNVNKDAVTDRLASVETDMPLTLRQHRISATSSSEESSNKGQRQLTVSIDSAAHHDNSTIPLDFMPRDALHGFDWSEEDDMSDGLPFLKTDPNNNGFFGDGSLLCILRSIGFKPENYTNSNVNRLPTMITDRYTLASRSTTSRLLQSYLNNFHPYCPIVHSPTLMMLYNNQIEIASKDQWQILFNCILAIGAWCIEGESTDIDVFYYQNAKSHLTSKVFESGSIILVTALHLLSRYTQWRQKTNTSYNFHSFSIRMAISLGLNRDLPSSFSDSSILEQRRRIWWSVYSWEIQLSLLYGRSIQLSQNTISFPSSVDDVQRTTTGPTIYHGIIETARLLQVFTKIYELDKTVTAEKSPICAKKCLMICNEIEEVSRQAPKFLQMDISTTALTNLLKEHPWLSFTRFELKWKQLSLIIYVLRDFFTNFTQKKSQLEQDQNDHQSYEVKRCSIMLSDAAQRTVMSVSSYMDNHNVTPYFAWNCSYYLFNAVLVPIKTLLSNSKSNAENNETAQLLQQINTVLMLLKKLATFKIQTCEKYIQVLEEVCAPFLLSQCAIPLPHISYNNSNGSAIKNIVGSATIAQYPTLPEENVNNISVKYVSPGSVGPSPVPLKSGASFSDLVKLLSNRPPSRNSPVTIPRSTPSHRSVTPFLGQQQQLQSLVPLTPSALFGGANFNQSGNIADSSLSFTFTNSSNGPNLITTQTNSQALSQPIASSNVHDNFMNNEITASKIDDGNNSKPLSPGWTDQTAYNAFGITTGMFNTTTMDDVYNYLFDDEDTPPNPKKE
UniProt Q62897: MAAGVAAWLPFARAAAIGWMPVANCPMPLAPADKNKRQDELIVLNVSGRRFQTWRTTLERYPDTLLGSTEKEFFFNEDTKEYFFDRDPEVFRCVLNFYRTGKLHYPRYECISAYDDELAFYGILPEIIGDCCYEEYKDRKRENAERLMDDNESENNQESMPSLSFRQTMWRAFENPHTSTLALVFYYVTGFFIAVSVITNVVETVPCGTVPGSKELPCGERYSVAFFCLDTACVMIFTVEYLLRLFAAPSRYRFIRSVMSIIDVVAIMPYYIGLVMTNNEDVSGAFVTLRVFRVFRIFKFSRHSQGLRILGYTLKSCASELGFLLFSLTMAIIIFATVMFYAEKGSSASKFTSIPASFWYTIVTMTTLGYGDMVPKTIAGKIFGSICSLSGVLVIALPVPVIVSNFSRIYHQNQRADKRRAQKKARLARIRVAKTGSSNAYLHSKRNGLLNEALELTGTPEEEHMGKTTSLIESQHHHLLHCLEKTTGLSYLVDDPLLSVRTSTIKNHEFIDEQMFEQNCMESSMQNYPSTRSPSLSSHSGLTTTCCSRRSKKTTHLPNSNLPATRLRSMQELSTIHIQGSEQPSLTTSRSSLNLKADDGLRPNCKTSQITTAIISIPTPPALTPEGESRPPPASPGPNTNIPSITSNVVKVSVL
UniProt P50516: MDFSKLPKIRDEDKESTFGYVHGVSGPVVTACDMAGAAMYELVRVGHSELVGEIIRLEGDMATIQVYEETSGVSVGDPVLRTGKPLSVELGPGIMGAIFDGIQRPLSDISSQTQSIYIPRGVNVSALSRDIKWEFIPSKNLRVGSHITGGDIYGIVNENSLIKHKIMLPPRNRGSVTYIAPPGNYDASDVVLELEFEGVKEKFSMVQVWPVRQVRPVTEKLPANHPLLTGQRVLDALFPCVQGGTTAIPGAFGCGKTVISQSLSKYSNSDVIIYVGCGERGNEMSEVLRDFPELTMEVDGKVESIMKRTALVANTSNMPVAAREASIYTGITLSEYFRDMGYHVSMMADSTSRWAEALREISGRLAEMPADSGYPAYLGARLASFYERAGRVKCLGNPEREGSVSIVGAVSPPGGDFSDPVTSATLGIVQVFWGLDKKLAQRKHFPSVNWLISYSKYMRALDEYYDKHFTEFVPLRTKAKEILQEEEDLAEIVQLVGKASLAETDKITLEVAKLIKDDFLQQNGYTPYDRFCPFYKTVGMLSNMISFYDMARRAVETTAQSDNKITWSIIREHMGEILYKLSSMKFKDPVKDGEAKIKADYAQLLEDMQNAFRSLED
UniProt Q8VD63: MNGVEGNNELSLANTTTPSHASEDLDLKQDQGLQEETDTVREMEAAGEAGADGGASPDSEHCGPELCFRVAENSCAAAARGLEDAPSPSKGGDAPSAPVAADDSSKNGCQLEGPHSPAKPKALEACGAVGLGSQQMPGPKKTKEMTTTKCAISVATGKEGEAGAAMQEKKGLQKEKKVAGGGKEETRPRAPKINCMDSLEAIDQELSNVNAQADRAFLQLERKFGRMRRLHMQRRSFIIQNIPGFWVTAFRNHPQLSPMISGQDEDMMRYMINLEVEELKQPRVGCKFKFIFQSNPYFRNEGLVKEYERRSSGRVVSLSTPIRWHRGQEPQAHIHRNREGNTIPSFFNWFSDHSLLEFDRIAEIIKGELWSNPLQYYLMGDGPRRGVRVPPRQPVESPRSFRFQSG
UniProt P05712: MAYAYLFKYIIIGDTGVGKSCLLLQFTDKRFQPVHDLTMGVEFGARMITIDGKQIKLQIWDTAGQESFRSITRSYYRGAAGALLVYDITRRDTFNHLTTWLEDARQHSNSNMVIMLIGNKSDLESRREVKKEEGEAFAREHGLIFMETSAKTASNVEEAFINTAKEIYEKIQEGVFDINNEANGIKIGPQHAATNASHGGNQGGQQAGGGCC
UniProt P05943: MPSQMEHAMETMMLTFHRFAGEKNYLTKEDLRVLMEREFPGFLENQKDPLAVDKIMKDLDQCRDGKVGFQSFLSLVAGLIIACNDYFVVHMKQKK

How the values were obtained:
[1] = target: T1, rKv4.2N (rat) (UniProt Q63881); test: yeast two-hybrid
T1 sequence (looked up): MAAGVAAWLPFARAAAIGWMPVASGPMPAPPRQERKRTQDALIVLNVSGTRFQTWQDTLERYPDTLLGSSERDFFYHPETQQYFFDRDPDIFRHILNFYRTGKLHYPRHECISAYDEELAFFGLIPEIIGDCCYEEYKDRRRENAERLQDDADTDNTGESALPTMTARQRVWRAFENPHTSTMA

[2] = target: T2, {GAL4 DNA-binding domain}-{rKv4.3(1-180)} fusion (rat) (UniProt P04386+Q62897); test: yeast two-hybrid
[3] = target: T2, {GAL4 DNA-binding domain}-{rKv4.3(1-180)} fusion (rat); test: yeast two-hybrid screen

Measured: binding

rat 7s (from UniProt P50516 348-617)
binds: all assays above

rat 33b07 (from UniProt Q8VD63 1-406)
binds: all assays above

rat 7q (from UniProt P05712 1-212)
binds: all assays above

rat 5p (from UniProt P05943 1-95)
binds: all assays above
